## Library screen at single concentrations

Protein sequences, listed by entry. Tags and fused reporters are not part of them. Residues count along the entry.
UniProt Q8IDJ8, 1-583: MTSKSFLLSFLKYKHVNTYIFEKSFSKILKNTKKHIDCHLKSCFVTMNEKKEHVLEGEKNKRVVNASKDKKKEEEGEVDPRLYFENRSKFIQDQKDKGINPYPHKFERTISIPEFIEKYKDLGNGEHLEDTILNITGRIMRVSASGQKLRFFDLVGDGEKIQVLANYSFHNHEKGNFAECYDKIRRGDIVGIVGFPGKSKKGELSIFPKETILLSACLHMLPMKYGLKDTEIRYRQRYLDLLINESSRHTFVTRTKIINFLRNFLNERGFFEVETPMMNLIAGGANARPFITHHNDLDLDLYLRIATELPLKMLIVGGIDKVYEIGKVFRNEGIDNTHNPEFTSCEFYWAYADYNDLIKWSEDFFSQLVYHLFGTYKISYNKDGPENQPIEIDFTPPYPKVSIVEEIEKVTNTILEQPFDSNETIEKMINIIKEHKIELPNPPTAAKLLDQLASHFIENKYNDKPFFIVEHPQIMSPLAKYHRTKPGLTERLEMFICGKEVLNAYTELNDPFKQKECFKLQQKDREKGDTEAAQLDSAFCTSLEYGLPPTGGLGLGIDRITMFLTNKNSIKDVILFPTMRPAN

Each number is a percent effect as filed. The record does not define 0% and 100%; most values in the screen are far below 50% and negative numbers occur (in some assays of this library far below -100). This is an unselected part of the compounds tested. A dash means the value is not listed here; it may have been measured.

A: 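Assay of Toxoplasma gondii numbers, read through their beta-galactosidase reporter with a colour substrate. Compounds at 10 µM. Higher reads as fewer parasites (inferred from which compounds were picked for retests). About 67,000 compounds were tested under these conditions; 0.38% (about 260) showed 50% or more at least once.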
B: 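Whole-parasite assay of Trypanosoma brucei over 72 hours; the read-out is not stated. Tested at 30 µM. Higher reads as stronger inhibition (inferred: compounds with an IC50 in retests scored well above the rest). Values scatter widely below zero; nearly all retest evidence comes from the higher of the two concentrations used. Size under these conditions: about 64,000 compounds, about 940 of them at 50% or above in at least one test.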
C: 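Cell assay of Leishmania donovani living inside macrophages; the read-out is not stated. Compounds at 30 µM. The record gives no direction; compounds that gave an IC50 in retests scored well above the rest, so higher reads as stronger inhibition. About 69,000 compounds were tested under these conditions; 1.5% (about 1,000) showed 50% or more at least once.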
D: 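Enzyme assay of the cytosolic lysyl-tRNA synthetase in 384-well plates, read by luminescence. Target: Lysine-tRNA ligase, Plasmodium falciparum 3D7 (UniProt Q8IDJ8). Compounds at 30 µM. Higher reads as stronger inhibition, judged from the few compounds that gave an IC50. Size under these conditions: about 69,000 compounds, about 49 of them at 50% or above in at least one test.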

With COC(=O)CCN1CCC(NC(=O)OC(C)(C)C)CC1 the screen gave A: 12.65%; B: -3.833%; C: 9.072%; D: 2.715%.
With COCCO[C@@H]1C[C@H]2CN(C(=O)c3cccnc3)CCN2C1 the screen gave D: 3.32%.
With Cc1ccccc1C(=O)N1CCCn2cnc(CN3CCCC3=O)c2C1 the screen gave A: -0.2228%; B: -39.29%; C: 5.199%; D: 1.389%.
With Cc1nc(C)n(CC2CCCN(Cc3nnc(C4CC4)o3)C2)n1 (stereo not shown) the screen gave A: -1.047%; B: -22.16%; C: 25.9%; D: 5.947%.
With CNC(=O)CN1CCC(c2cc(OC)cc(OC)c2)C1 (stereo not shown) the screen gave A: 3.369%; B: 2.986%; C: 10.49%; D: -0.8759%.
With O=C(NCCc1cc(=O)[nH]cn1)c1[nH]nc2c1CCCC2 the screen gave A: -10.52%; B: -6.178%; C: -25.73%; D: -0.1789%.
With O=C(O)C(F)(F)F.[H][C@@]12CN(C(=O)Cc3ccsc3)C[C@]1([H])OCCN2CC1CCCO1 (stereo partly shown) the screen gave A: 5.917%; B: -34.43%; C: -20.33%.
With Cc1ccc2oc(C(=O)N3CCCC(c4noc(C)n4)C3)cc2n1 (stereo not shown) the screen gave A: 9.85%; B: -13.04%; C: 10.5%; D: -0.1641%.
With Cn1ncc2c(N3CCN(CCO)CC3)nc(C3CCCC3)nc21 the screen gave A: 4.521%; B: -62.32%; C: -2.147%; D: 6.94%.
With COc1ccc(CN2CCC3(CC2)C(C(=O)O)CC(=O)N3C)cc1Cl (stereo not shown) the screen gave A: -1.239%; B: -83.72%; C: -7.332%; D: 1.732%.
With CCCC(=O)N(C)Cc1nc(N2CCCC2)ncc1-c1ccncc1 the screen gave D: 4.387%.
With Cc1nc(COC[C@@H]2CCC[C@@]23CN(C)CCO3)cs1 the screen gave D: 4.421%.
With NS(=O)(=O)CCNC(=O)C1(c2ccc(Br)cc2)CC1 the screen gave A: 21.76%; B: 6.92%; C: 34.56%; D: 2.408%.
With CCN1CCN(C(=O)c2cc(-c3cccs3)cs2)CC1 the screen gave A: -7.14%; B: 4.287%; C: -1.143%; D: -1.367%.
With CCCn1ccnc1CN1CCC(Oc2ccc(Cl)cc2)(C(=O)O)CC1 the screen gave A: 4.864%; B: 8.641%; C: 1.896%; D: 28.72%.
With CCN(C)CC1CCN(S(=O)(=O)c2cc(C)c(F)cc2Cl)C1 (stereo not shown) the screen gave A: 21.03%; B: -10.41%; C: 23.66%; D: -0.1439%.
With O=C(Nc1nncs1)N1CCC(CCc2ccc(O)cc2)CC1 the screen gave A: -2.695%; B: 3.853%; C: 10.89%; D: 1.953%.
With COc1ccc(OCCc2nnc(NC(C)=O)s2)cc1 the screen gave A: -4.781%; B: -28.18%; C: -16.84%; D: 1.206%.
With O=C(O)C(F)(F)F.O=C(O)C(F)(F)F.[H][C@@]12CCN(Cc3ccncc3)C[C@]1(C(=O)N1CCOCC1)CCO2 the screen gave A: 25.11%; B: -56.43%; C: 2.48%.
With COc1ccccc1C(=O)NS(=O)(=O)c1cccc(C#N)c1 the screen gave A: -0.2288%; B: -12.62%; C: 24.9%; D: -0.4525%.
With [H][C@]12CC[C@]([H])(CN(C3CCOCC3)C1)N(Cc1cnc(SC)nc1)C2 the screen gave A: 1.622%; B: -96.46%; C: 15.51%.
With CCc1cnc(N2CCC3(CC2)CN(c2cccnc2)C(=O)CO3)nc1.O=C(O)C(F)(F)F the screen gave A: -2.851%; C: -66.97%.

The first 2 entries again:

SMILES,A,B,C,D
COC(=O)CCN1CCC(NC(=O)OC(C)(C)C)CC1,12.65,-3.833,9.072,2.715
COCCO[C@@H]1C[C@H]2CN(C(=O)c3cccnc3)CCN2C1,-,-,-,3.32

The values are deposited in ChEMBL (CHEMBL3988442, “University of Dundee, Small-Polar-MMV Screening Library” (2021)).